Results deposited as PubChem BioAssay AID1259254 (NCATS, 2017)

Aim: 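Gene knock-downs that lead to re-replication, shown by excess G2 DNA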 (primary screen)
Cells: human HCT116 colorectal cancer cells
Knock-down reagent: single siRNA against human genes
Duration: 3 days
Measurement: 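Nuclei stained with Hoechst and imaged; cell-cycle phase assigned by DNA content; G2 share scaled per plate, non-targeting siRNA 0%, GMNN siRNA 100%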
Direction: G2 robust z-score and G2 cells, % of GMNN control: higher = more G2 cells, more excess DNA replication
Hit rule: 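Active siRNAs have a G2 robust z of 5 or more median absolute deviations over the median, which in these data means about 38% or higher of GMNN control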
The deposit covers about 59,000 reagents; this is a part drawn at random. About 1,550 of them (2.6%) count as active. 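G2 share is only a proxy for re-replication; each gene was hit by three separate siRNAs, and active genes were retested.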 Reagents against one gene are numbered here. Not all columns of the deposit are shown. No sequences are given here. Not given: the amount of reagent.

SOD1 (superoxide dismutase 1) #1 scored G2 robust z-score 3.92; G2 cells, % of GMNN control 30.6; inactive.
Against SOD1 (superoxide dismutase 1) #2 the deposit lists G2 robust z-score 3.76; G2 cells, % of GMNN control 29.4; inactive.
With knock-down of SOD1 (superoxide dismutase 1) #3 the results were G2 robust z-score 0.924; G2 cells, % of GMNN control 9.47; inactive.
Depletion of CSF1R (colony stimulating factor 1 receptor) #1 gave: G2 robust z-score -1.25; G2 cells, % of GMNN control -5.85; inactive.
With knock-down of CSF1R (colony stimulating factor 1 receptor) #2 the results were G2 robust z-score 0.251; G2 cells, % of GMNN control 4.73; inactive.
After knock-down of CSF1R (colony stimulating factor 1 receptor) #3 the results were G2 robust z-score -0.377; G2 cells, % of GMNN control 0.318; inactive.
FANCM (FA complementation group M) #1 showed G2 robust z-score 0.36; G2 cells, % of GMNN control 5.5; inactive.
With knock-down of FANCM (FA complementation group M) #2 the results were G2 robust z-score -0.463; G2 cells, % of GMNN control -0.292; inactive.
With knock-down of FANCM (FA complementation group M) #3, the screen gave G2 robust z-score -0.692; G2 cells, % of GMNN control -1.9; inactive.
COG2 (component of oligomeric golgi complex 2) #1 scored G2 robust z-score -1.16; G2 cells, % of GMNN control -5.18; inactive.
Against COG2 (component of oligomeric golgi complex 2) #2 the deposit lists G2 robust z-score 1.52; G2 cells, % of GMNN control 13.7; inactive.
COG2 (component of oligomeric golgi complex 2) #3 gave G2 robust z-score -0.433; G2 cells, % of GMNN control -0.0767; inactive.

2 successive records already listed, quoted:
CSF1R (colony stimulating factor 1 receptor) #2 | G2 robust z-score = 0.251; G2 cells, % of GMNN control = 4.73; call = inactive
CSF1R (colony stimulating factor 1 receptor) #3 | G2 robust z-score = -0.377; G2 cells, % of GMNN control = 0.318; call = inactive
